# Results taken from EP1143955B1, “A COMBINATION OF FBPase INHIBITORS AND INSULIN SENSITIZERS FOR THE TREATMENT OF DIABETES” (priority 1998, dated 2000).
# For at least one compound, name, drawing or mass did not settle the structure.
# Assays:
# ZDF rat = experiment: Combination treatment with Troglitazone and Compound G or Compound J in the ZDF rat - blood glucose (Example N); format: in vivo, Zucker Diabetic Fatty (ZDF) rat; conditions: food admixture
# type 2 diabetics = conditions: clinical trials (Mathisen et al. 1998); cited from earlier work
SMILES,blood glucose lowering in pilot studies (dose selection) (ZDF rat),HbAlc reductions (type 2 diabetics) [%],average blood glucose lowering (type 2 diabetics)
Cc1c(C)c2c(c(C)c1O)CCC(C)(COc1ccc(CC3SC(=O)NC3=O)cc1)O2 (stereo not drawn) [Troglitazone],normalize blood glucose levels in 10-week old ZDF rats,–,–
CCc1ccc(CCOc2ccc(CC3SC(=O)NC3=O)cc2)nc1 (stereo not drawn) [Pioglitazone],–,0.6,~ 50 mg/dl
